Substitutions are numbered along the chain they refer to. No constants are given. Whether binding was seen depends on the method and setting. In cells and extracts the contact can be indirect. Some results given as binding are weak or reduced against the parent protein; the word gives no strength. Where a sequence is shown, tags or fusion partners need not be part of it.
T1: SpoVK^(B*, A5V)-FLAG (B. subtilis) (UniProt P27643)
T1 sequence: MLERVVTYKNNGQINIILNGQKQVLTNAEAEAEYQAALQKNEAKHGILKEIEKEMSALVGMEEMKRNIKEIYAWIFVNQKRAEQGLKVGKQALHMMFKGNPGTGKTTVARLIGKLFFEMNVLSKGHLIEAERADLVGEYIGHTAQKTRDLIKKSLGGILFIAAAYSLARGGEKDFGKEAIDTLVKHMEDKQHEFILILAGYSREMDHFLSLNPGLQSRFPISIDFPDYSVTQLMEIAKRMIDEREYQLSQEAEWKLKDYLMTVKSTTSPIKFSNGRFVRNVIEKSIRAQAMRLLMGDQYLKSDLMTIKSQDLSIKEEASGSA

T2: FLAG-tagged SpoVK harboring a disrupted Walker B motif (SpoVK^B*-FLAG) (B. subtilis) (UniProt P27643)
T2 sequence: T1 sequence with V5A

B1: SpoVID (protein, UniProt P37963 1-575)
chain: MPQNHRLQFSVEESICFQKGQEVSELLSISLDPDIRVQEVNDYVSIIGSLELTGEYNIDQNKHTEEIYTDKRFVEQVRKREDGSAELTHCFPVDITIPKNKVSHLQDVFVFIDAFDYQLTDSRILTIQADLAIEGLLDDTQDKEPEIPLYEAPAAFREEELSEPPAHSVVEEPGASSAEEAVLQHEPPAEPPELFISKAGLREELETEKAESEPPESVASEPEAREDVKEEEESEELAVPETEVRAESETEESEPEPDPSEIEIQEIVKAKKETAEPAAAIADVREEADSPAETELREHVGAEESPALEAELHSETVIAKEKEETTVSPNHEYALRQEAQNEEAAQSDQADPALCQEEAEPDEALESVSEAALSIEDSRETASAVYMENDNADLHFHFNQKTSSEEASQEELPEPAYRTFLPEQEEEDSFYSAPKLLEEEEQEEESFEIEVRKTPSAEEPKEETPFQSFQLPESSETERKETDAVPRVAPAAETKEPQTKESDNSLYLTKLFTKEADEFSRMKICIVQQEDTIERLCERYEITSQQLIRMNSLALDDELKAGQILYIPQYKNSHA
B2: GFP fused to the LysM domain of SpoVID (GFP-SpoVID^501−575) (domain or fragment, UniProt P37963 501-575)
chain: ESDNSLYLTKLFTKEADEFSRMKICIVQQEDTIERLCERYEITSQQLIRMNSLALDDELKAGQILYIPQYKNSHA
B3: MurG (enzyme, UniProt P37585 1-363)
chain: MRIAISGGGTGGHIYPALAFIKEVQRRHPNVEFLYIGTENGLEKKIVERENIPFRSIEITGFKRKLSFENVKTVMRFLKGVKKSKSYLAEFKPDAVIGTGGYVCGPVVYAAAKMGIPTIVHEQNSLPGITNKFLSKYVNKVAICFEEAKSHFPSEKVVFTGNPRASEVVSIKTGRSLAEFGLSEDKKTVLIFGGSRGAAPINRAVIDMQDVLKTRDYQVLYITGEVHYEKVMNELKSKGAADNMVTKPFLHQMPEYLKAIDVIVARAGATTIAEITALGIPSVLIPSPYVTANHQEVNARSLGQHDAAIVLKETELSGEKLIEALDRIVLNEQTLKEMSERTKSLGVPDAAARLYSVLEELKK

Columns and labels:
[1] = molecular target: T1, SpoVK^(B*, A5V)-FLAG (B. subtilis); experiment: co-IP; anti-FLAG magnetic beads on extracts of B. subtilis 4 h after induction of sporulation (cells with SpoVID, or ΔspoVID cells for MurG); binding buffer 50 mM Tris-HCl pH 7.5, 150 mM NaCl, 7.5% glycerol, 0.2% Triton-X-100, 4 °C, 1 h; elution with 100 mM glycine pH 2.7; fractions immunoblotted
[2] = molecular target: T2, FLAG-tagged SpoVK harboring a disrupted Walker B motif (SpoVK^B*-FLAG) (B. subtilis); experiment: as above

binding [1] | binding [2] | Binder
binds | binds | B1
– | binds | B2
binds | binds | B3

From publication doi:10.1101/2023.10.06.561273, “Bacterial cell surface nanoenvironment requires a specialized chaperone to activate a peptidoglycan biosynthetic enzyme” (bioRxiv, 2023)
